# In all, about 33,000 sequences were measured (“E-score (-0.5 to 0.5)”: median about -0.015, highest 2% from about 0.3 on). The list shows a part of the results.
# Molecular target: T1, Abf1 (UniProt P14164)
# T1 sequence: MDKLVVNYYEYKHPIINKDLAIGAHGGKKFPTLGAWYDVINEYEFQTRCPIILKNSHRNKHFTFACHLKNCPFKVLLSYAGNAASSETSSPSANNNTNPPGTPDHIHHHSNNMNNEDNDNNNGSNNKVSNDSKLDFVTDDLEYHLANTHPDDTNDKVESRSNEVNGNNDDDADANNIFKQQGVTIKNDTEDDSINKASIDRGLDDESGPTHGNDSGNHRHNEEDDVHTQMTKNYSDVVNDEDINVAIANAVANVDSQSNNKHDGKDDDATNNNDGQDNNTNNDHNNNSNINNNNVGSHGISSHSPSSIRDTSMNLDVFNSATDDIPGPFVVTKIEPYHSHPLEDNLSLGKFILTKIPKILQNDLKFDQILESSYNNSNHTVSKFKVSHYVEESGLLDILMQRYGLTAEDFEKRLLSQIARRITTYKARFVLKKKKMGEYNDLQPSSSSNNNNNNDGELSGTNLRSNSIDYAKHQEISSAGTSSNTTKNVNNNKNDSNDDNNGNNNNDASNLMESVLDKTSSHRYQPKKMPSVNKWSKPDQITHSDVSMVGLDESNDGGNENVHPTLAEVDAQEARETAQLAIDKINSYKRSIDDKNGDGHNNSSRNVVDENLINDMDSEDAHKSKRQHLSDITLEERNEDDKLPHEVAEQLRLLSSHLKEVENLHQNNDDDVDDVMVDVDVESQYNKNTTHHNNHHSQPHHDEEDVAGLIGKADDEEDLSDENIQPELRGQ
# Test: PBM E-score (8-mer binding enrichment) (E-score (-0.5 to 0.5)); higher = stronger / more preferred TF binding
# Conditions: protein concentration: 200 nM; construct: GST-full length
# Procedure: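 Universal 'all 10-mer' protein binding microarrays (Agilent AMADID 015681) probed with GST-tagged S. cerevisiae TFs (full-length or DBD) made by in vitro transcription/translation (PURExpress), about 100-200 nM. Bound TF was detected with fluorescent anti-GST. Each ungapped 8-mer (which stands for itself and its reverse complement) is scored by the PBM enrichment score (E-score), a modified Wilcoxon-Mann-Whitney statistic from -0.5 to +0.5, computed with the Universal PBM Analysis Suite. Scale: above 0.35 generally sequence-specific binding.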
row,Sequence,PBM E-score
1,GTTACGTA,-0.0533
2,GCTAGACC,-0.199
3,CAGCGACG,0.112
4,CAGGCATG,-0.0836
5,AACGATGT,0.229
6,AGCGATCC,0.0374
7,GCTCTGGA,0.165
8,AGCTCCCT,-0.295
9,CCACACAG,-0.0604
10,GCCATATA,0.0849
11,ATACATAA,0.0844
12,GCGGGATA,0.0864
13,AGGAGACG,-0.163
14,CGCAAGAC,0.122
15,AGTTACCA,0.0965
16,AGCATGGC,-0.114
17,CATGTGCA,-0.115
18,ACGGAGGG,0.0212
19,CCTGTACA,0.0248
20,GGTAAATA,0.015
21,CTTAAGTA,0.0776
22,CCAATTCA,-0.0262

row,Sequence,PBM E-score
1,CAACCAGG,-0.288
2,ATCTACGA,0.233
3,AAGTTATG,0.0741
4,GAAGTATC,0.183
5,ACTGGGAA,0.0656
6,ACGTGAGT,-0.0203
7,CCGGTAGA,-0.0669
8,AATCGCTC,-0.0643
9,AGAGCACA,-0.151
10,TACGACCA,0.242
11,ACCTATAT,0.262
12,GCACGAGA,0.178
13,GCCGGTTA,-0.0941
14,AGCTCCAG,-0.158
15,CCGCGATA,0.147
16,CATTTTAA,0.0806
17,CATCATGG,0.101
18,GCTTTTGA,-0.13
19,CCATCGGC,-0.142
20,CTCTTCAC,0.0515
21,AATAATCA,0.227
22,CAATTAGA,-0.121

row,Sequence,PBM E-score
1,CACGTGAC,0.22
2,AGAGAACT,-0.0311
3,ACTTGGTG,-0.141
4,ACAGCGTG,0.0194
5,CCGGTGTC,-0.262
6,GACTTCAA,-0.124
7,CAAGTCGA,-0.106
8,AGCCCGAA,-0.0782
9,CGCACGAA,0.321
10,ACTCGGAT,0.0437
11,AAGAGCAG,-0.216
12,GGTTTATA,0.105
13,GATCGTCA,0.277
14,CCCCGCGG,-0.255
15,AGGACGCA,-0.181
16,GGTCGCTA,0.0741
17,ACCACTGC,-0.127
18,TCGCTCCA,0.00797
19,GCACAACA,-0.0984
20,AAGCTATG,-0.163
21,GTCTCTCA,0.0465
22,ATAATACC,0.189

row,Sequence,PBM E-score
1,CCTGGAAC,-0.0203
2,GGGTGCAC,-0.0187
3,CCAGATCA,0.218
4,CGTCCGCC,-0.0516
5,GATGCGGA,-0.0896
6,ATCGTCGA,0.289
7,GCTAGAAC,-0.063
8,CCTGGCCA,-0.161
9,AGGTCAAC,-0.0991
10,GGTAATGA,0.17
11,AAGGATGG,-0.0912
12,GGGCTGCA,-0.191
13,GGCTGTAC,0.00065
14,ATCGACCC,-0.0929
15,AAATGTTA,0.0905
16,CAAATTAG,0.171
17,TAGTCGCA,-0.0737
18,AAGAGGGC,0.0275
19,ACTGTCCC,-0.126
20,CGAATGCG,0.103

# Given with tabs: entries from further up.
row	Sequence	PBM E-score
1	CCTGGAAC	-0.0203
3	CCAGATCA	0.218
4	CGTCCGCC	-0.0516
6	ATCGTCGA	0.289
18	AAGAGGGC	0.0275
